Results as given in PubChem BioAssay AID318 (DTP/NCI, 2004).
The list is a part of this screen's results and no random one: it gathers some chemical classes. Other doses and runs of a compound may be missing. T/C: endpoint of the treated group in % of that of the vehicle group. Where survival is the endpoint, the PubChem record calls one and a half times the control and up active, and a quarter to a half above the control has no call in these data; cut-offs in other NCI protocols can differ. Some entries show no survivor count and are marked so; the dose need not have been tolerated. Schedules are NCI's codes, taken here to give the interval after Q, in days (D) or hours (H), and the number of doses after X. Marks such as (2×) stand for listed records that agree. Some entries were tested several times; the values are given in rising order.

Tested on: BDF1 mice, P815 leukemia ip, survival T/C
Assay: NCI In Vivo Anticancer Drug Screen. Data for tumor model P815 Mast Cell Leukemia (Ascitic) (intraperitoneal) in B6D2F1 (BDF1) mice
Settings: T/C endpoint: survival time, mean or median, schedule: Q01DX010 (ip), vehicle: saline, higher T/C = longer survival
Method: The antitumor activity of compounds was measured in mice bearing transplantable tumors. Survival or tumor size were measured and the results are expressed as the measurement made in the treated group (T) divided by the measurement made in the vehicle treated control group (C). The tumor model used in this assay is P815 Mast Cell Leukemia (Ascitic) (intraperitoneal) in B6D2F1 (BDF1) mice

Which results are given for `NC(Cc1cccc(N(CCCl)CCCl)c1)C(=O)O` (centres undefined)?
T/C (dose: 0.63 mg/kg/injection): 116 [survivor count not shown] and 155 % of control [survivor count not shown]; T/C (dose: 1.25 mg/kg/injection): 144 [survivor count not shown] and 172 % of control [survivor count not shown]; T/C (dose: 2.5 mg/kg/injection): 172 [survivor count not shown] and 261 % of control [survivor count not shown]; T/C (dose: 5.0 mg/kg/injection): 105 [survivor count not shown] and 205 % of control [survivor count not shown]

`NC(Cc1ccccc1N(CCCl)CCCl)C(=O)O` (centres undefined) was tested. Which T/C (dose: 0.25 mg/kg/injection) did it give?
Its T/C is 138 % of control [survivor count not shown].

What about the T/C (dose: 0.5 mg/kg/injection) of the same compound?
Its T/C is 194 % of control [survivor count not shown].

What about the T/C (dose: 1.0 mg/kg/injection) of the same compound?
The T/C was 150 % of control [survivor count not shown].

What about the T/C (dose: 2.0 mg/kg/injection) of the same compound?
Its T/C is 100 % of control [survivor count not shown].

What does the source list for `ClCCN(CCCl)Cc1nc2ccccc2[nH]1`?
T/C (dose: 1.25 mg/kg/injection): 111 % of control [survivor count not shown]; T/C (dose: 2.5 mg/kg/injection): 120 [survivor count not shown] and 133 % of control [survivor count not shown]; T/C (dose: 5.0 mg/kg/injection): 150 [survivor count not shown] and 155 % of control [survivor count not shown]; T/C (dose: 10.0 mg/kg/injection): 120 [survivor count not shown] and 166 % of control [survivor count not shown]

Which results are given for `NC1CCCCC1.NP(=O)(O)N(CCCl)CCCl`?
T/C (dose: 31.3 mg/kg/injection): 172 % of control [survivor count not shown]; T/C (dose: 62.5 mg/kg/injection): 152 % of control [survivor count not shown]

Which results are given for `CC(C(=O)O)N(CCCl)CCCl` (centres undefined)?
T/C (dose: 0.5 mg/kg/injection): 122 % of control [survivor count not shown] (2×); T/C (dose: 1.0 mg/kg/injection): 138 % of control [survivor count not shown] (2×); T/C (dose: 2.0 mg/kg/injection): 194 [survivor count not shown] and 272 % of control [survivor count not shown]; T/C (dose: 4.0 mg/kg/injection): 261 % of control [survivor count not shown]

Which T/C (dose: 0.63 mg/kg/injection) does the source give for `O=C(O)CN(CCCl)CCCl` here?
Its T/C is 116 [survivor count not shown] and 127 % of control [survivor count not shown].

What about the T/C (dose: 1.25 mg/kg/injection) of the same compound?
Its T/C is 166 [survivor count not shown] and 216 % of control [survivor count not shown].

What about the T/C (dose: 2.5 mg/kg/injection) of the same compound?
Its T/C is 300 [survivor count not shown] and 333 % of control [survivor count not shown].

What about the T/C (dose: 5.0 mg/kg/injection) of the same compound?
The T/C was 88 % of control [survivor count not shown].

What does the source list for `ClCCNCCCl`?
T/C (dose: 18.8 mg/kg/injection): 110 [survivor count not shown] and 115 % of control [survivor count not shown]; T/C (dose: 37.5 mg/kg/injection): 113 % of control [survivor count not shown] (2×)
